The results in this text go back to paper doi:10.1101/2023.02.19.529116.

Amino acid sequences for entries named in this document (tags omitted).
UniProt P92177: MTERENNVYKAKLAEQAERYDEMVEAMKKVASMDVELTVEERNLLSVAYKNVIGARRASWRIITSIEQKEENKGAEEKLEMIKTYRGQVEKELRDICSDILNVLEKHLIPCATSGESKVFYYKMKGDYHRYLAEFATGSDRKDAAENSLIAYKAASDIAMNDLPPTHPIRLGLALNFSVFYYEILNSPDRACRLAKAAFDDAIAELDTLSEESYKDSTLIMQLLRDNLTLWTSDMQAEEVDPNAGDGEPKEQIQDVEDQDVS
UniProt Q32KD4: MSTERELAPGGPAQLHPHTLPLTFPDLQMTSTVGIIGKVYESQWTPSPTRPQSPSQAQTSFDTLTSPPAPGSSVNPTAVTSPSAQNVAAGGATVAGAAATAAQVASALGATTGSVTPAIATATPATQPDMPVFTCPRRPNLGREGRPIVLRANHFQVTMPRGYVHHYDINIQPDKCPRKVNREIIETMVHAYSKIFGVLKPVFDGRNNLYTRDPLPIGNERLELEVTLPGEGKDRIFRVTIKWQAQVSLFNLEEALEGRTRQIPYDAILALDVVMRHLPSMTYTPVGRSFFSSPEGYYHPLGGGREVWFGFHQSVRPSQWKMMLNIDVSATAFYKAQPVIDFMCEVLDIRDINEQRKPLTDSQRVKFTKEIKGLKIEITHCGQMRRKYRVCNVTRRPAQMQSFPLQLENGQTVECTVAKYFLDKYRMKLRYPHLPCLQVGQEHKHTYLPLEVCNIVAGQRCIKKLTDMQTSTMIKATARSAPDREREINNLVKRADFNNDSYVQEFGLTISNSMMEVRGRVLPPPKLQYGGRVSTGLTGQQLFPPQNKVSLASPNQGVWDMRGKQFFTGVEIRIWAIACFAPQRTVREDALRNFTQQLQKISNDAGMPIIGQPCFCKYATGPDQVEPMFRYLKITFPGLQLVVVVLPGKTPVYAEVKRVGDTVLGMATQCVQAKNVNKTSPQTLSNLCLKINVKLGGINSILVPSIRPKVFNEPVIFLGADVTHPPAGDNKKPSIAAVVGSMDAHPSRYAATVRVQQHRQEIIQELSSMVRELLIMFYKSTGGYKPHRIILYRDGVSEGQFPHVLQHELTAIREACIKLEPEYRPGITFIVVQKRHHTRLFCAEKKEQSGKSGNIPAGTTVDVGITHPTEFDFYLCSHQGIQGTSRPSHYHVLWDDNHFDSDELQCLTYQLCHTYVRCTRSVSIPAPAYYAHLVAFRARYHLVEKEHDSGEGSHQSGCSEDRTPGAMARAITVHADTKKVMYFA

This test has as its target T1, PH-EGFP-Smaug (Drosophila) (UniProt Q23972).
T1 sequence: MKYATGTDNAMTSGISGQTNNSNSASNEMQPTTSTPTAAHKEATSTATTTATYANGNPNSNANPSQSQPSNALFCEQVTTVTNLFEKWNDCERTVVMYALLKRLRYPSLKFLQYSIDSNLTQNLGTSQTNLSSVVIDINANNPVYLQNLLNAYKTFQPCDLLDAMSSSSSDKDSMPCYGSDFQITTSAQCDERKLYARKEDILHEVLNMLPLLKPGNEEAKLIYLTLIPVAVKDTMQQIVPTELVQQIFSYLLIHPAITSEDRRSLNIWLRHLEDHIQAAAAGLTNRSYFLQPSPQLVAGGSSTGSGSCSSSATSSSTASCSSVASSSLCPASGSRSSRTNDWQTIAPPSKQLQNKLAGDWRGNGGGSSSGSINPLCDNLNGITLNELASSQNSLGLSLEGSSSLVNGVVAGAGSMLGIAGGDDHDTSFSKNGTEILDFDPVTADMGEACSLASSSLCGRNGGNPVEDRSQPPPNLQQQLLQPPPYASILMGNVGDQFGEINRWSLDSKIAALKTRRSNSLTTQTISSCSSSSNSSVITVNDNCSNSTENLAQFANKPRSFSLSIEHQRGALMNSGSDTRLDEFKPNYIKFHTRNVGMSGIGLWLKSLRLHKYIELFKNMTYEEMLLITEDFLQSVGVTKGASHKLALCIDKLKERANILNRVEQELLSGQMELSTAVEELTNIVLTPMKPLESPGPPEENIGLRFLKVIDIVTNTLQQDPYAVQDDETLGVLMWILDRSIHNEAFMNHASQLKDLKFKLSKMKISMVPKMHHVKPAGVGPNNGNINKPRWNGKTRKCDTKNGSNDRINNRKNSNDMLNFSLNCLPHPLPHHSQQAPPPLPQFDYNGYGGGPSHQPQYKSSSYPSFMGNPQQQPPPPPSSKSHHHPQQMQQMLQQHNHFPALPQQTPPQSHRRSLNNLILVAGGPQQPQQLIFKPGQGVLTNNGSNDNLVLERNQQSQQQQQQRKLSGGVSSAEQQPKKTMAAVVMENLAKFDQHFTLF
Kind of test: ReLo.

No constants are given. Whether binding was seen depends on the method and setting. Some entries that bind do so weakly or less than the wild type. Tags and fused reporters may be left off the sequences shown.

For 14-3-3ε (from UniProt P92177 1-262), the binding result is “binds”.
For the substance Ago1 (from UniProt Q32KD4 1-984), the binding entry was “no binding”.
